PubChem BioAssay AID1259308, NCATS – 2017

Aim: 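Genes whose loss raises luciferase production in HEK293 cells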 (primary screen)
Cells: human HEK293 embryonic kidney cells stably expressing firefly luciferase (HEK-CMV-Luc2-Hygro)
Reagents: single siRNA against human genes, 0.8 pmol siRNA per well
Timing: 72 h
Detection: 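Luciferase light (ONE-Glo) measured on one replicate plate set and viability (CellTiter-Glo) on the other, scaled to a negative control siRNA, with robust z-scores and luciferase per cell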
Scale: total luciferase, z-score and total luciferase, % of control: higher = more reporter protein produced
Hit rule: 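An siRNA counts as active if its total luciferase robust z-score exceeds 3; genes with two or more such siRNAs out of three were retested with fresh siRNAs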
Calls: active = raised luciferase; inactive = no rise
This is a random part of about 59,000 reagents. About 1,510 of them (2.6%) were called active. 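Calls use total luciferase alone and ignore viability, so some active siRNAs may act by altering cell number.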 The numbers tell different reagents against one gene apart. Not all columns of the deposit are shown.

{"Gene": "TSHZ1", "reagent no.": 1, "total luciferase, z-score": 1.02, "total luciferase, % of control": 102, "Call": "inactive"}
{"Gene": "TSHZ1", "reagent no.": 2, "total luciferase, z-score": -0.538, "total luciferase, % of control": 71.2, "Call": "inactive"}
{"Gene": "TSHZ1", "reagent no.": 3, "total luciferase, z-score": -1.56, "total luciferase, % of control": 50.9, "Call": "inactive"}
{"Gene": "USP32P2", "reagent no.": 1, "total luciferase, z-score": 1.46, "total luciferase, % of control": 111, "Call": "inactive"}
{"Gene": "USP32P2", "reagent no.": 2, "total luciferase, z-score": 0.616, "total luciferase, % of control": 94.1, "Call": "inactive"}
{"Gene": "USP32P2", "reagent no.": 3, "total luciferase, z-score": -0.369, "total luciferase, % of control": 74.6, "Call": "inactive"}
{"Gene": "TFG", "reagent no.": 1, "total luciferase, z-score": 0.663, "total luciferase, % of control": 95.1, "Call": "inactive"}
{"Gene": "TFG", "reagent no.": 2, "total luciferase, z-score": -0.399, "total luciferase, % of control": 74, "Call": "inactive"}
{"Gene": "TFG", "reagent no.": 3, "total luciferase, z-score": 0.544, "total luciferase, % of control": 92.7, "Call": "inactive"}
{"Gene": "CTNS", "reagent no.": 1, "total luciferase, z-score": 1.12, "total luciferase, % of control": 104, "Call": "inactive"}
{"Gene": "CTNS", "reagent no.": 2, "total luciferase, z-score": -1.8, "total luciferase, % of control": 46.1, "Call": "inactive"}
{"Gene": "CTNS", "reagent no.": 3, "total luciferase, z-score": -0.386, "total luciferase, % of control": 74.2, "Call": "inactive"}
{"Gene": "CHIA", "reagent no.": 1, "total luciferase, z-score": -0.407, "total luciferase, % of control": 73.8, "Call": "inactive"}
{"Gene": "CHIA", "reagent no.": 2, "total luciferase, z-score": 0.35, "total luciferase, % of control": 88.8, "Call": "inactive"}
{"Gene": "CHIA", "reagent no.": 3, "total luciferase, z-score": -1.21, "total luciferase, % of control": 57.8, "Call": "inactive"}
{"Gene": "HHIPL2", "reagent no.": 1, "total luciferase, z-score": -0.852, "total luciferase, % of control": 64.9, "Call": "inactive"}
{"Gene": "HHIPL2", "reagent no.": 2, "total luciferase, z-score": 0.759, "total luciferase, % of control": 97, "Call": "inactive"}
{"Gene": "HHIPL2", "reagent no.": 3, "total luciferase, z-score": 1.06, "total luciferase, % of control": 103, "Call": "inactive"}

3 of these entries, reformatted.
TSHZ1 #3: total luciferase, z-score = -1.56; total luciferase, % of control = 50.9; Call = inactive
USP32P2 #1: total luciferase, z-score = 1.46; total luciferase, % of control = 111; Call = inactive
USP32P2 #2: total luciferase, z-score = 0.616; total luciferase, % of control = 94.1; Call = inactive

More results follow.
{"Gene": "H3C11", "reagent no.": 1, "total luciferase, z-score": -0.818, "total luciferase, % of control": 65.6, "Call": "inactive"}
{"Gene": "H3C11", "reagent no.": 2, "total luciferase, z-score": 1.59, "total luciferase, % of control": 114, "Call": "inactive"}
{"Gene": "H3C11", "reagent no.": 3, "total luciferase, z-score": -0.0945, "total luciferase, % of control": 80, "Call": "inactive"}
{"Gene": "SUFU", "reagent no.": 1, "total luciferase, z-score": -1.27, "total luciferase, % of control": 56.7, "Call": "inactive"}
{"Gene": "SUFU", "reagent no.": 2, "total luciferase, z-score": -0.974, "total luciferase, % of control": 62.5, "Call": "inactive"}
{"Gene": "SUFU", "reagent no.": 3, "total luciferase, z-score": -0.834, "total luciferase, % of control": 65.3, "Call": "inactive"}
{"Gene": "GPR88", "reagent no.": 1, "total luciferase, z-score": 0.537, "total luciferase, % of control": 92.6, "Call": "inactive"}
{"Gene": "GPR88", "reagent no.": 2, "total luciferase, z-score": -0.298, "total luciferase, % of control": 76, "Call": "inactive"}
{"Gene": "GPR88", "reagent no.": 3, "total luciferase, z-score": -0.101, "total luciferase, % of control": 79.9, "Call": "inactive"}
{"Gene": "PANX1", "reagent no.": 1, "total luciferase, z-score": -0.761, "total luciferase, % of control": 66.8, "Call": "inactive"}
{"Gene": "PANX1", "reagent no.": 2, "total luciferase, z-score": -0.892, "total luciferase, % of control": 64.2, "Call": "inactive"}
{"Gene": "PANX1", "reagent no.": 3, "total luciferase, z-score": -0.816, "total luciferase, % of control": 65.7, "Call": "inactive"}
{"Gene": "CA13", "reagent no.": 1, "total luciferase, z-score": 0.429, "total luciferase, % of control": 90.4, "Call": "inactive"}
{"Gene": "CA13", "reagent no.": 2, "total luciferase, z-score": 0.772, "total luciferase, % of control": 97.2, "Call": "inactive"}
{"Gene": "CA13", "reagent no.": 3, "total luciferase, z-score": -0.998, "total luciferase, % of control": 62, "Call": "inactive"}
